# Measurements as given in the supplement of paper PMC8728848.
# The list shows a part of the results.
# B1: PX9937I-bfa-538-26-538 (Bacteroides fragilis) (protein)
# chain: DKLDLSPIDYYGSGSYWKTEAQATAYIDGIHKHLRDAAWQHTITFGELRGGRFITGASSDGMGVSNGDIILQNFDETHTGVSKFGDLFGRITNLNLFIARVTDATYLSDEMKNFYLGEVYGLRAFYYFDLYRIYGGVPLRLTADVVEGVIDPNKLYMARSTPKEVMTQIKSDLNKSMEYFGNMNDFDPYKRGKKVYWSKAATECLMGEVYLWTSKVTTGDDVANPADLTIAKTHLESVLNNYNLKMLDDFSQVFNAKNKANDEIIFAIRFLEGEATNSNGTFTYNVGTGSTKNRYQANGEVFGDALDIQNTGNQTYEYNKAVYQNFDDADTRKEATFIASYNKDGKTGELSLYGTHVRKNIGYVNAQGARVYCGDYIFYRLPWVYLTLAEIANMEGDNAAVAKYINLVRKRAYGNAWDETLYAYPETADFTTNELAILHEKDKEFIQEGQRWWDLRRMTLTKGGTPLVFCKEGSLLGDAPILNKSTEAHKLLWPIEKTMLNKDPALEQTPGYK
# What was measured:
# Assay in all cases: glycan array binding signal (z-score within array); higher = stronger binding
# Conditions in all cases: glycan notation: IUPAC condensed, linker removed
# [1] = target: GlcNAc(b1-2)Gal(b1-3)GalNAc
# In short: (§1)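 From the Consortium for Functional Glycomics database, 3228 arrays were curated, keeping only those whose protein sequence was available. Binding is given as a within-array Z-score averaged across arrays sharing a protein sequence and across linkers. Negative Z-scores can be read as non-binding.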
# [2] = target: GlcNAc(b1-2)Man(a1-3)[GlcNAc(b1-2)Man(a1-6)]Man(b1-4)GlcNAc(b1-4)GlcNAc
# In short: as §1
# [3] = target: GlcNAc(b1-2)Man(a1-3)[GlcNAc(b1-2)Man(a1-6)]Man(b1-4)GlcNAc(b1-4)[Fuc(a1-6)]GlcNAc
# In short: as §1
# [4] = target: GlcNAc(b1-2)Man(a1-3)[GlcNAc(b1-4)][GlcNAc(b1-2)Man(a1-6)]Man(b1-4)GlcNAc(b1-4)GlcNAc
# In short: as §1
# [5] = target: GlcNAc(b1-2)Man(a1-3)[GlcNAc(b1-4)][GlcNAc(b1-2)Man(a1-6)]Man(b1-4)GlcNAc(b1-4)[Fuc(a1-6)]GlcNAc
# In short: as §1
# [6] = target: GlcNAc(b1-2)[GlcNAc(b1-4)]Man(a1-3)[GlcNAc(b1-2)Man(a1-6)]Man(b1-4)GlcNAc(b1-4)GlcNAc
# In short: as §1
# [7] = target: GlcNAc(b1-2)[GlcNAc(b1-4)]Man(a1-3)[GlcNAc(b1-4)][GlcNAc(b1-2)Man(a1-6)]Man(b1-4)GlcNAc(b1-4)GlcNAc
# In short: as §1
# [8] = target: GlcNAc(b1-2)[GlcNAc(b1-4)]Man(a1-3)[GlcNAc(b1-4)][GlcNAc(b1-2)[GlcNAc(b1-6)]Man(a1-6)]Man(b1-4)GlcNAc(b1-4)GlcNAc
# In short: as §1
# [9] = target: GlcNAc(b1-2)[GlcNAc(b1-4)]Man(a1-3)[GlcNAc(b1-4)][GlcNAc(b1-2)[GlcNAc(b1-6)]Man(a1-6)]Man(b1-4)GlcNAc(b1-4)[Fuc(a1-6)]GlcNAc
# In short: as §1
# [10] = target: GlcNAc(b1-2)[GlcNAc(b1-6)]Man(a1-6)[GlcNAc(b1-2)Man(a1-3)]Man(b1-4)GlcNAc(b1-4)GlcNAc
# In short: as §1
# [11] = target: GlcNAc(b1-2)[GlcNAc(b1-6)]Man(a1-6)[GlcNAc(b1-2)Man(a1-3)]Man(b1-4)GlcNAc(b1-4)[Fuc(a1-6)]GlcNAc
# In short: as §1
# [12] = target: GlcNAc(b1-2)[GlcNAc(b1-6)]Man(a1-6)[GlcNAc(b1-4)][GlcNAc(b1-2)Man(a1-3)]Man(b1-4)GlcNAc(b1-4)GlcNAc
# In short: as §1
# GlcNAc(b1-3)Fuc = target: GlcNAc(b1-3)Fuc
# In short: as §1
# GlcNAc(b1-3)Gal = target: GlcNAc(b1-3)Gal
# In short: as §1
# [13] = target: GlcNAc(b1-3)Gal(b1-3)GalNAc
# In short: as §1
# GlcNAc(b1-3)Gal(b1-4)Glc = target: GlcNAc(b1-3)Gal(b1-4)Glc
# In short: as §1
# [14] = target: GlcNAc(b1-3)Gal(b1-4)GlcNAc
# In short: as §1
# [15] = target: GlcNAc(b1-3)Gal(b1-4)GlcNAc(b1-2)Man(a1-3)[GlcNAc(b1-3)Gal(b1-4)GlcNAc(b1-2)Man(a1-6)]Man(b1-4)GlcNAc(b1-4)GlcNAc
# In short: as §1
# [16] = target: GlcNAc(b1-3)Gal(b1-4)GlcNAc(b1-2)Man(a1-3)[GlcNAc(b1-3)Gal(b1-4)GlcNAc(b1-2)Man(a1-6)]Man(b1-4)GlcNAc(b1-4)[Fuc(a1-6)]GlcNAc
# In short: as §1
# [17] = target: GlcNAc(b1-3)Gal(b1-4)GlcNAc(b1-2)[GlcNAc(b1-3)Gal(b1-4)GlcNAc(b1-6)]Man(a1-6)[GlcNAc(b1-3)Gal(b1-4)GlcNAc(b1-2)Man(a1-3)]Man(b1-4)GlcNAc(b1-4)GlcNAc
# In short: as §1
# [18] = target: GlcNAc(b1-3)Gal(b1-4)GlcNAc(b1-3)Gal(b1-4)GlcNAc
# In short: as §1
# [19] = target: GlcNAc(b1-3)Gal(b1-4)GlcNAc(b1-3)Gal(b1-4)GlcNAc(b1-2)Man(a1-3)[GlcNAc(b1-3)Gal(b1-4)GlcNAc(b1-3)Gal(b1-4)GlcNAc(b1-2)Man(a1-6)]Man(b1-4)GlcNAc(b1-4)GlcNAc
# In short: as §1
# [20] = target: GlcNAc(b1-3)Gal(b1-4)GlcNAc(b1-3)Gal(b1-4)GlcNAc(b1-2)Man(a1-3)[GlcNAc(b1-3)Gal(b1-4)GlcNAc(b1-3)Gal(b1-4)GlcNAc(b1-2)Man(a1-6)]Man(b1-4)GlcNAc(b1-4)[Fuc(a1-6)]GlcNAc
# In short: as §1
# [21] = target: GlcNAc(b1-3)Gal(b1-4)GlcNAc(b1-3)Gal(b1-4)GlcNAc(b1-2)[GlcNAc(b1-3)Gal(b1-4)GlcNAc(b1-3)Gal(b1-4)GlcNAc(b1-6)]Man(a1-6)[GlcNAc(b1-3)Gal(b1-4)GlcNAc(b1-3)Gal(b1-4)GlcNAc(b1-2)Man(a1-3)]Man(b1-4)GlcNAc(b1-4)[Fuc(a1-6)]GlcNAc
# In short: as §1
# [22] = target: GlcNAc(b1-3)Gal(b1-4)GlcNAc(b1-3)Gal(b1-4)GlcNAc(b1-3)Gal(b1-4)GlcNAc(b1-2)Man(a1-3)[GlcNAc(b1-3)Gal(b1-4)GlcNAc(b1-3)Gal(b1-4)GlcNAc(b1-3)Gal(b1-4)GlcNAc(b1-2)Man(a1-6)]Man(b1-4)GlcNAc(b1-4)GlcNAc
# In short: as §1
# [23] = target: GlcNAc(b1-3)Gal(b1-4)GlcNAc(b1-3)Gal(b1-4)GlcNAc(b1-3)Gal(b1-4)GlcNAc(b1-2)Man(a1-3)[GlcNAc(b1-3)Gal(b1-4)GlcNAc(b1-3)Gal(b1-4)GlcNAc(b1-3)Gal(b1-4)GlcNAc(b1-2)Man(a1-6)]Man(b1-4)GlcNAc(b1-4)[Fuc(a1-6)]GlcNAc
# In short: as §1
# [24] = target: GlcNAc(b1-3)Gal(b1-4)GlcNAc(b1-3)Gal(b1-4)GlcNAc(b1-3)Gal(b1-4)GlcNAc(b1-2)[GlcNAc(b1-3)Gal(b1-4)GlcNAc(b1-3)Gal(b1-4)GlcNAc(b1-3)Gal(b1-4)GlcNAc(b1-6)]Man(a1-6)[GlcNAc(b1-3)Gal(b1-4)GlcNAc(b1-3)Gal(b1-4)GlcNAc(b1-3)Gal(b1-4)GlcNAc(b1-2)Man(a1-3)]Man(b1-4)GlcNAc(b1-4)[Fuc(a1-6)]GlcNAc
# In short: as §1
# [25] = target: GlcNAc(b1-3)Gal(b1-4)GlcNAc(b1-3)Gal(b1-4)GlcNAc(b1-3)Gal(b1-4)GlcNAc(b1-3)Gal(b1-4)GlcNAc(b1-2)Man(a1-3)[GlcNAc(b1-3)Gal(b1-4)GlcNAc(b1-3)Gal(b1-4)GlcNAc(b1-3)Gal(b1-4)GlcNAc(b1-3)Gal(b1-4)GlcNAc(b1-2)Man(a1-6)]Man(b1-4)GlcNAc(b1-4)GlcNAc
# In short: as §1
# [26] = target: GlcNAc(b1-3)Gal(b1-4)GlcNAc(b1-3)Gal(b1-4)GlcNAc(b1-3)Gal(b1-4)GlcNAc(b1-3)Gal(b1-4)GlcNAc(b1-2)Man(a1-3)[GlcNAc(b1-3)Gal(b1-4)GlcNAc(b1-3)Gal(b1-4)GlcNAc(b1-3)Gal(b1-4)GlcNAc(b1-3)Gal(b1-4)GlcNAc(b1-2)Man(a1-6)]Man(b1-4)GlcNAc(b1-4)[Fuc(a1-6)]GlcNAc
# In short: as §1
# [27] = target: GlcNAc(b1-3)Gal(b1-4)GlcNAc(b1-3)Gal(b1-4)GlcNAc(b1-3)Gal(b1-4)GlcNAc(b1-3)Gal(b1-4)GlcNAc(b1-2)[GlcNAc(b1-3)Gal(b1-4)GlcNAc(b1-3)Gal(b1-4)GlcNAc(b1-3)Gal(b1-4)GlcNAc(b1-3)Gal(b1-4)GlcNAc(b1-6)]Man(a1-6)[GlcNAc(b1-3)Gal(b1-4)GlcNAc(b1-3)Gal(b1-4)GlcNAc(b1-3)Gal(b1-4)GlcNAc(b1-3)Gal(b1-4)GlcNAc(b1-2)Man(a1-3)]Man(b1-4)GlcNAc(b1-4)[Fuc(a1-6)]GlcNAc
# In short: as §1
# [28] = target: GlcNAc(b1-3)Gal(b1-4)GlcNAc(b1-3)Gal(b1-4)GlcNAc(b1-3)GalNAc
# In short: as §1
# [29] = target: GlcNAc(b1-3)Gal(b1-4)GlcNAc(b1-3)GalNAc
# In short: as §1
# [30] = target: GlcNAc(b1-3)Gal(b1-4)GlcNAc(b1-3)[GlcNAc(b1-3)Gal(b1-4)GlcNAc(b1-3)]GalNAc
# In short: as §1
# [31] = target: GlcNAc(b1-3)Gal(b1-4)GlcNAc(b1-6)[Gal(b1-3)]GalNAc
# In short: as §1
# [32] = target: GlcNAc(b1-3)Gal(b1-4)GlcNAc(b1-6)[GlcNAc(b1-3)Gal(b1-3)]GalNAc
# In short: as §1
# [33] = target: GlcNAc(b1-3)Gal(b1-4)GlcNAc(b1-6)[GlcNAc(b1-3)]Gal(b1-4)GlcNAc
# In short: as §1
# GlcNAc(b1-3)GalNAc = target: GlcNAc(b1-3)GalNAc
# In short: as §1
binder,measurement,setting,value
B1,glycan array binding signal (z-score),[1],-0.67
same,glycan array binding signal (z-score),[2],-1.11
same,glycan array binding signal (z-score),[3],0.095
same,glycan array binding signal (z-score),[4],1.33
same,glycan array binding signal (z-score),[5],-0.358
same,glycan array binding signal (z-score),[6],-0.678
same,glycan array binding signal (z-score),[7],-0.773
same,glycan array binding signal (z-score),[8],1.78
same,glycan array binding signal (z-score),[9],-0.615
same,glycan array binding signal (z-score),[10],0.847
same,glycan array binding signal (z-score),[11],0.381
same,glycan array binding signal (z-score),[12],-0.243
same,glycan array binding signal (z-score),GlcNAc(b1-3)Fuc,-1.47
same,glycan array binding signal (z-score),GlcNAc(b1-3)Gal,-0.224
same,glycan array binding signal (z-score),[13],-0.051
same,glycan array binding signal (z-score),GlcNAc(b1-3)Gal(b1-4)Glc,-0.462
same,glycan array binding signal (z-score),[14],-1.15
same,glycan array binding signal (z-score),[15],-0.395
same,glycan array binding signal (z-score),[16],1.01
same,glycan array binding signal (z-score),[17],-0.09
same,glycan array binding signal (z-score),[18],-0.969
same,glycan array binding signal (z-score),[19],0.355
same,glycan array binding signal (z-score),[20],0.423
same,glycan array binding signal (z-score),[21],0.7
same,glycan array binding signal (z-score),[22],0.329
same,glycan array binding signal (z-score),[23],0.396
same,glycan array binding signal (z-score),[24],0.512
same,glycan array binding signal (z-score),[25],0.544
same,glycan array binding signal (z-score),[26],0.855
same,glycan array binding signal (z-score),[27],0.041
same,glycan array binding signal (z-score),[28],-0.855
same,glycan array binding signal (z-score),[29],-1.13
same,glycan array binding signal (z-score),[30],-0.193
same,glycan array binding signal (z-score),[31],-0.484
same,glycan array binding signal (z-score),[32],0.43
same,glycan array binding signal (z-score),[33],-0.068
same,glycan array binding signal (z-score),GlcNAc(b1-3)GalNAc,-0.301

# Already shown: an excerpt of the list.
binder,measurement,setting,value
B1,glycan array binding signal (z-score),[23],0.396
same,glycan array binding signal (z-score),[24],0.512
same,glycan array binding signal (z-score),[25],0.544
